Some of these results come from one statement about several compounds together.
Test system: Gg
Test: Field tests: treated wheat and barley seed in previously infested fields
Format: in vivo, Gaeumannomyces graminis
Conditions: mixed with wheat and barley seed at 0.01 to 50 g active ingredient per kg of seed; compared to check fields seeded with untreated seed

Row | SMILES | incidence of Gg in previously infested fields
1 | C=CCNC(=O)c1c([Si](C)(C)C)sc2ccccc12 [Example 13, N-2-Propenyl-2-(trimethylsilyl)benzo[b]thiophene-3-carboxamide] | reduce the incidence of Gg in previously infested fields
2 | CCNC(=O)c1c([Si](C)(C)C)ccc2ccsc12 [Example 43, N-ethyl 6-trimethylsilyl benzothiophene-7-carboxamide] | reduce the incidence of Gg in previously infested fields
3 | CCNC(=O)c1c([Si](C)(C)C)n(C)c2ccccc12 [Example 10, N-Ethyl-1-Methyl-2-(trimethylsilyl)-1H-indole-3-carboxamide] | reduce the incidence of Gg in previously infested fields
4 | CCNC(=O)c1c([Si](C)(C)C)cc(F)c2ccccc12 [Example 1, N-Ethyl-4-fluoro-2-(trimethylsilyl)-1-naphthalenecarboxamide] | reduce the incidence of Gg in previously infested fields
5 | CCN(CC)C(=O)c1c([Si](C)(C)C)ccc2ccccc12 [Example 3, N,N-Diethyl-2-(trimethylsilyl)-1-naphthalenecarboxamide] | reduce the incidence of Gg in previously infested fields
6 | CCN(CC)C(=O)c1c([Si](C)(C)CI)ccc2ccccc12 [Example 2, N,N-Diethyl-2-[(iodomethyl)dimethylsilyl]-1-naphthalenecarboxamide] | reduce the incidence of Gg in previously infested fields
7 | CCNC(=O)c1c([Si](C)(C)C)sc2ccccc12 [Example 8, N-Ethyl-2-(trimethylsilyl)-benzo[b]thiophene-3-carboxamide] | reduce the incidence of Gg in previously infested fields
8 | CCNC(=O)c1oc2ccccc2c1[Si](C)(C)C [Example 11, N-Ethyl-3-(trimethylsilyl)-2-benzofurancarboxamide] | reduce the incidence of Gg in previously infested fields
9 | CCNC(=O)c1c([Si](C)(C)C)oc2ccccc12 [Example 12, N-Ethyl-2-(trimethylsilyl)-3-benzofurancarboxamide] | reduce the incidence of Gg in previously infested fields
10 | CCN(CC)C(=O)c1c([Si](C)(C)C)sc2ccccc12 [Example 14, N,N-Diethyl-2-(trimethylsilyl)benzo[b]thiophene-3-carboxamide] | reduce the incidence of Gg in previously infested fields
11 | CCNC(=O)c1c([Si](C)(C)C)ccc2ccoc12 [Example 44, N-ethyl 6-trimethylsilyl benzofuran-7-carboxamide] | reduce the incidence of Gg in previously infested fields
12 | CC(C)N(O)C(=O)c1c([Si](C)(C)C)sc2ccccc12 [Example 17, N-Hydroxy-N-(1-methylethyl)-2-(trimethylsilyl)benzo[b]-thiophene-3-carboxamide] | reduce the incidence of Gg in previously infested fields
13 | CCNC(=O)C1=C([Si](C)(C)C)S(=O)(=O)c2ccccc21 [Example 15, N-Ethyl-2-(trimethylsilyl)benzo[b]thiophene-3-carboxamide 1,1-dioxide] | reduce the incidence of Gg in previously infested fields
14 | CCNC(=O)c1sc2ccccc2c1[Si](C)(C)C [Example 9, N-Ethyl-3-(trimethylsilyl)benzo[b]thiophene-2-carboxamide] | reduce the incidence of Gg in previously infested fields
15 | CCN(SC)C(=O)c1c([Si](C)(C)C)sc2ccccc12 [Example 16, N-Ethyl-N-(methylthio)-2-(trimethylsilyl)benzo[b]-thiophene-3-carboxamide] | reduce the incidence of Gg in previously infested fields
16 | CCNC(=O)c1c([Si](C)(C)C)ccc2occc12 [Example 42, N-ethyl 5-trimethylsilyl benzofuran-4-carboxamide] | reduce the incidence of Gg in previously infested fields
17 | CCNC(=O)n1c([Si](C)(C)C)cc2ccccc21 [Example 7, N-Ethyl-2-(trimethylsilyl)-1H-indole-1-carboxamide] | reduce the incidence of Gg in previously infested fields
18 | CC(C)(C)Nc1ccc2ccccc2c1C(=O)NCCBr [Example 18, N-(2-bromoethyl) 2-[(1,1-dimethylethyl)amino]-1-naphthamide] | reduce the incidence of Gg in previously infested fields
19 | CCNC(=O)c1c([Si](C)(C)C)ccc2sccc12 [Example 41, N-ethyl 5-trimethylsilyl benzothiophene-4-carboxamide] | reduce the incidence of Gg in previously infested fields
20 | CCNC(=O)c1cc2ccccc2cc1[Si](C)(C)C [Example 5, N-Ethyl-3-(trimethylsilyl)-2-naphthalenecarboxamide] | reduce the incidence of Gg in previously infested fields
21 | CCC(C)(C)Nc1ccc2ccccc2c1C(=O)NCCBr [Example 19, N-(2-bromoethyl) 2-[(1,1-dimethylpropyl)amino]-1-naphthamide] | reduce the incidence of Gg in previously infested fields
22 | CCNC(=O)c1c([Si](C)(C)C)ccc2ccccc12 [Example 4, N-Ethyl-2-(trimethylsilyl)-1-naphthalenecarboxamide] | reduce the incidence of Gg in previously infested fields
